No constants are given. Whether binding was seen depends on the method and setting. In cells and extracts the contact can be indirect. Some binding calls cover weakened binding; strength is not graded here.
Target: TGF-β receptor type II (TβRII), flag-tagged (UniProt P37173)
Experiment: co-IP; GFP-IFT20 and/or flag-TβRII transfected in primary osteoblasts; which tag was precipitated is not told

Chains of the proteins cited; added tags and fusions are not shown. Residues count along the entry.
UniProt P37173, residues 23-567: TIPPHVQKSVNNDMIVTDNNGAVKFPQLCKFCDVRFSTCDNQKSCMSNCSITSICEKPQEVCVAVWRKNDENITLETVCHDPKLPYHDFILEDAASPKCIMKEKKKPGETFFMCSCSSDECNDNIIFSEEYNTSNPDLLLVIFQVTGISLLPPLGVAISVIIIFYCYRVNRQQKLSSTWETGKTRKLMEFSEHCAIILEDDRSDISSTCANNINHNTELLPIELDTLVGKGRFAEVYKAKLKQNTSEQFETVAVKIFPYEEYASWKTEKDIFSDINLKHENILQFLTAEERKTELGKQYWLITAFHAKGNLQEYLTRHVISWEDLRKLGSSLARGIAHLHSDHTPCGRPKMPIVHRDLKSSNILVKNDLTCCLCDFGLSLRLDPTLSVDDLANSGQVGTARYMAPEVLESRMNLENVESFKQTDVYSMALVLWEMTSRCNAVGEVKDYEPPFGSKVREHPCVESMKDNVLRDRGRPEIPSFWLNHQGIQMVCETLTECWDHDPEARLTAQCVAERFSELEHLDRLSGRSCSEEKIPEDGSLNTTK
UniProt Q61025: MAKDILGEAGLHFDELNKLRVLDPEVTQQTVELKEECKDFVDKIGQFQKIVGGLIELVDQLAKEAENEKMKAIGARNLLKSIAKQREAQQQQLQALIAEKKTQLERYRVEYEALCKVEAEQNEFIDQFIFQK

binding: binds
Substance: intraflagellar transport 20 (IFT20), GFP-tagged (from UniProt Q61025 1-132)

Source: article PMC10984095
